For data set [1], the target named is T1, BMntR (Bacillus subtilis) (UniProt P54512).
T1 sequence (looked up, limits assumed): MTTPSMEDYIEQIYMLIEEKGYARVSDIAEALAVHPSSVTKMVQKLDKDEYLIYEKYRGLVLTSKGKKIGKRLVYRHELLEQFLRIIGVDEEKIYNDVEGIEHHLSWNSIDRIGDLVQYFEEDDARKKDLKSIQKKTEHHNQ
In words: nES GEMMA (gas-phase electrophoresis). Particulars: 0.25 uM DNA, nES GEMMA: DNA diluted in 40 mM ammonium acetate pH 8.4, recombinant protein.

The target of data set [2] is T1, BMntR (Bacillus subtilis). Kind of data set: EMSA. The following applies: 90 uM protein, 2.5 uM DNA, EMSA: 10 mM Tris-HCl pH 7.6, 50 mM NaCl, 1 mM DTT, 10% glycerol, 50 ug/mL BSA, 15 min room temperature, gel in TB pH 7.6 at 4 C, recombinant protein. A general note: A gel shift assay detects complexes by their altered migration in electrophoresis.

The exact form of at least one protein or probe is not confirmed. For some of these results: A negative result means that nothing was seen under these conditions. Tags and fusion partners may be left off the protein sequences shown. For some of these results: The comparison behind a weaker result is the experiment's own reference, which may not be listed here.

Consider “AAAATAATTTGCCTTAAGGAAACTCTTT (double strand) [B. subtilis mntH recognition sequence]”, for which the binding result is recorded as “binds” in data set [1] (250 uM MnCl2, 1.3 uM BMntR, complex peak 7.0 nm); “no binding” in data set [1] (no Mn2+, 1.3 uM BMntR); “binds” in data set [2] (4 mM Mn2+ (16 mM with 8 mM EDTA)); “binds more weakly” in data set [2] (no Mn2+, slight interaction).
